Results: PubChem BioAssay AID1671190 (National Center for Advancing Translational Sciences (NCATS), 2021)
The campaign covered roughly 580,000 compounds. About 6,100 (1.1%) were called active. Inconclusive means that the source gave no clear call. Such entries were picked first, then a sample of the others. The call rests on the fitted dose curve; in most records, active means well fitted inhibition curve with a large enough effect; inconclusive means small, poorly fitted or top-dose-only effect, or another doubt; inactive means no such curve, though single readings can be large or run the other way. Potencies of inconclusive entries are doubtful fits and often do not repeat.

Amino acid sequences for entries named in this document (tags omitted).
UniProt P18054, whole entry, looked up: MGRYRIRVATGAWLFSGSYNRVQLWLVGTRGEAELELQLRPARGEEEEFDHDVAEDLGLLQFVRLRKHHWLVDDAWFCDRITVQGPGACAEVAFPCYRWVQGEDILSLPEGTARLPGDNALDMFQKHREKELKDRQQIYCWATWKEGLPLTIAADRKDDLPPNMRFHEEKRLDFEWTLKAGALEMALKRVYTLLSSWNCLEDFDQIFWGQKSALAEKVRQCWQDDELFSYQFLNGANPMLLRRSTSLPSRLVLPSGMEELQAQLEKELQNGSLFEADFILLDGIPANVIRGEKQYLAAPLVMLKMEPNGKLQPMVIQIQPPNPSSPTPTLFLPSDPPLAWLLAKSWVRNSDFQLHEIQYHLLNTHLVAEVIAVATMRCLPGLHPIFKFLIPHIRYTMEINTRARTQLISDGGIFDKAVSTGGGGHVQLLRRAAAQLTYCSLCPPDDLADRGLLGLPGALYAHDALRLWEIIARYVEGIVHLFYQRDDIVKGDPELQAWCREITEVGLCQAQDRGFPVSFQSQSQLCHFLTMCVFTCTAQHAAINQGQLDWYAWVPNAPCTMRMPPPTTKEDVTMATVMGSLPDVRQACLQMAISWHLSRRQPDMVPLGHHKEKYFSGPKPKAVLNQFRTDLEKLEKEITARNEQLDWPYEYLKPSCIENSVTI

target: Polyunsaturated fatty acid lipoxygenase ALOX12 (Homo sapiens) (UniProt P18054); assay: Primary qHTS assay for inhibitors of human arachidonate 12S-lipoxygenase (ALOX12): Round 2; details: purified 12hLO, xylenol orange hydroperoxide absorbance; activity change, negative = inhibition: at 108 µM (top of the series) unless noted
How it was run: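 Purified human 12hLO at 150 nM in 25 mM Hepes, 0.01% Triton X-100, pH 7.0, preincubated 15 min at room temperature with compound. Reaction started with 40 uM arachidonic acid, 30 min at room temperature. Hydroperoxide measured by Fe-xylenol orange, 573/405 nm absorbance ratio.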
On the % scale 0 is the no-effect control and ±100 the full control effect; potency means the concentration at half of the fitted maximal effect.

Structure (SMILES) | Potency | activity change, negative = inhibition
Cc1cc(Cl)ccc1OC(C)C(=O)Nc1ccc(C(=O)Nc2ccccc2C(=O)O)cc1 (centres undefined) | active: 50.1 µM | 
CN(Cc1ccco1)c1ncnc2ccc(-c3ccccc3C(F)(F)F)cc12 | inconclusive: 10 µM [inhibitor, partial curve, poor fit] | 
Cc1ccc(NC(=O)Cc2c(C(=O)O)n(C)c3ccccc23)cc1F |  | inactive: -5.95%
O=[N+]([O-])c1cccnc1NCCc1c[nH]c2ccccc12 |  | inactive: 0%
COc1ccccc1-c1cc(C(=O)NCCc2ccc(Cl)cc2)nn2cccc12 | inconclusive: 63.1 µM [inhibitor, partial curve, poor fit] | 
CCc1ccccc1NC(=O)NNS(=O)(=O)c1cc(C)ccc1C |  | inactive: -2.46%
COc1ccc(-c2sc3ccc(N4CCOCC4)cc3c2C#CC(C)(C)O)cc1 | inconclusive: 28.2 µM [inhibitor, partial curve] | 
Cc1nc(Nc2ncc(C(=O)Nc3c(C)cccc3Cl)s2)cc(N2CCN(CCO)CC2)n1 | inconclusive: 0.685 µM [inhibitor, full curve] | inactive: 9.06% [at 22.9 µM]
CC1=C(C(=O)N2CCOCC2)CC(CC(=O)NCCN2CCOCC2)C(=O)N1Cc1ccc(C(C)(C)C)cc1 (centres undefined) | inconclusive: 39.8 µM [inhibitor, single point] | 
COc1cc(NS(=O)(=O)c2ccc(Br)cc2)c(OC)cc1NC(=O)c1ccco1 |  | inactive: 10.9%
CCOC(=O)c1c(C)c(C(=O)Nc2ccc3c(c2)OCCO3)c(C)n1CC |  | inactive: -8.95%
O=C(Nc1cc(C(F)(F)F)ccc1N1CCOCC1)C1Cc2ccccc2CN1C(=O)c1ccco1 (centres undefined) | inconclusive: 50.1 µM [inhibitor, partial curve, poor fit] | 
Cc1cc(C)c2nc(-c3ccncc3)cc(C(=O)Nc3nccs3)c2c1 | inconclusive: 79.4 µM [inhibitor, single point] | 
COCCOC(=O)N1CCCCC1c1cc(C(=O)NCc2ccc(Cl)c(Cl)c2)no1 (centres undefined) |  | inactive: 1.05%
Cc1c(C(=O)N(C)c2ccccc2)sc2nc3n(c(=O)c12)CCCC3 |  | inactive: -20.6%
COc1ccc(Cl)cc1NC(=O)NC1CCCCC1 |  | inactive: 416%
O=C(N[C@@H]1CN(Cc2ccc(F)cc2)C[C@H]1CO)c1cccnc1 | inconclusive: 79.4 µM [inhibitor, single point] | 
CC(=O)N1CCN(CC(O)COc2ccc(Br)cc2)CC1 (centres undefined) | active: 0.355 µM | 
O=C(NC1CCN(c2cc(-c3cccs3)[nH]n2)C1)c1cc2ccccc2[nH]1 (centres undefined) |  | inactive: -4.43%
CCN(CCO)CCCC(C)Nc1ccnc2cc(Cl)ccc12 (centres undefined) | inconclusive: 0.863 µM [inhibitor, full curve, poor fit] | 
c1ccc(OCCNc2nc(NCC3CC3)nc3cc(-c4ccccc4)sc23)cc1 | inconclusive: 50.1 µM [inhibitor, partial curve, poor fit] | 
O=C(O)/C=C\C(=O)Nc1ccc(F)c(F)c1F | inconclusive: 100 µM [inhibitor, single point] | 

Quoted at random: two entries already listed, in no set order.
Structure (SMILES) | Potency | activity change, negative = inhibition
O=C(N[C@@H]1CN(Cc2ccc(F)cc2)C[C@H]1CO)c1cccnc1 | inconclusive: 79.4 µM [inhibitor, single point] | 
Cc1ccc(NC(=O)Cc2c(C(=O)O)n(C)c3ccccc23)cc1F |  | inactive: -5.95%

Going on with the list:

Structure (SMILES) | Potency | activity change, negative = inhibition
CCOc1cc(C(=O)Nc2ccc(C)cc2O)ccc1OCC(=O)N1CCOCC1 | inconclusive: 3.98 µM [inhibitor, full curve, poor fit] | 
CCCCNC(=S)N/N=C/c1cc(C)ccc1C | active: 50.1 µM | 
O=c1ccc2ccc(O[C@@H]3O[C@H](CO)[C@@H](O)[C@H](O)[C@H]3O)c(O)c2o1 | inconclusive: 89.1 µM [inhibitor, single point] | 
CCOC(=O)[C@H]1[C@H]2COc3ccc(Br)cc3[C@H]2N2C(=O)CN(Cc3ccc(C)cc3)C(=O)[C@@]12C | inconclusive: 112 µM [inhibitor, single point] | 
COc1ccc(-c2noc(C(=O)O)c2[C@@H](C)NC(=O)c2ccccc2)cc1 | inconclusive: 12.6 µM [inhibitor, partial curve] | 
O=C(CCc1ccccc1)Nc1cccnc1 |  | inactive: 0%
CCOc1cccc(OCCOCCN2CCCC2)c1 | inconclusive: 0.398 µM [inhibitor, full curve, poor fit] | 
COc1cc(N2CCC(N3CCN(C)CC3)CC2)ccc1Nc1ncnc(Nc2ccccc2S(=O)(=O)C(C)C)n1 | inconclusive: 27.3 µM [inhibitor, single point] | 
CC(=O)N1CCN(c2oc(/C=C/c3ccccc3Cl)nc2C#N)CC1 |  | inactive: -5.83%
O=C(NCc1ccco1)/C(=C/C=C/c1ccccc1)NC(=O)c1ccco1 | inconclusive: 39.8 µM [inhibitor, partial curve, poor fit] | 
O=C(C[C@@H]1CCNC[C@@H]1Cc1cc(COc2ccccc2)on1)NCc1ccco1 | inconclusive: 44.7 µM [inhibitor, full curve, poor fit] | 
CCOc1cc(NC(=S)NCC2CCCO2)c(OCC)cc1NC(=O)c1cccc(C)c1 (centres undefined) | inconclusive: 6.31 µM [inhibitor, partial curve, poor fit] | 
CN1Cc2ccc(C(=O)Nc3ccccc3)cc2OCC1=O |  | inactive: -13.8% [at 176 µM]
CCCOc1ccc(C(=O)NNC(=S)NC(=O)c2cc(-c3ccccc3)nc3ccccc23)cc1 | inconclusive: 28.2 µM [inhibitor, partial curve, poor fit] | 
O=C(c1ccc2c(c1)OCO2)N1CCN(c2cc(-c3ccc(F)cc3)[nH]n2)CC1 |  | inactive: 7.99%
COc1ccc(CC(=O)N[C@H]2CCOC[C@H]2C2CCOCC2)c(OC)c1 |  | inactive: 41.9%
Cc1ccc(Cl)cc1NC(=O)CCn1cnc2ccccc2c1=O | inconclusive: 79.4 µM [inhibitor, partial curve, poor fit] | 
Cc1cc(C)cc(N(C)C(=O)C2CCN(c3nc4ccccc4o3)CC2)c1 | inconclusive: 70.8 µM [inhibitor, partial curve, poor fit] | 
COc1ccc(-c2onc(C)c2-c2ccc(C(=O)OC(C)C)o2)c(O)c1 | inconclusive: 50.1 µM [inhibitor, single point] | 
O=C(O)c1c2c(nc3ccccc13)-c1ccccc1CC2 | inconclusive: 89.1 µM [inhibitor, partial curve, poor fit] | 
CC(=O)c1sc2nc(-c3ccc(C)cc3)c3c(c2c1N)CCCC3 |  | inactive: -8.25%
